# According to PubChem BioAssay AID274 (DTP/NCI, 2004):
# The list is a part of this screen's results and no random one: it gathers tests that were run many times, whatever their T/C, doses with no T/C, and many T/C values between a quarter and a half above the control. Other doses and runs of a compound stand elsewhere. T/C gives the treated animals as a percentage of the vehicle group. Some entries give survivors of the animals treated and no T/C: the source files T/C as zero there, which appears to mark a toxic dose or a test without result, not a measured value. Some survivor counts are full or nearly so, which does not show that the dose was tolerated: the source hardly ever lists a survival T/C far under the control, and the zero likely stands for such cases as well. Survivors were counted at the toxicity check, usually on the fifth day, unless a day is given; later deaths do not show. Schedules are NCI's codes, taken here to give the interval after Q, in days (D) or hours (H), and the number of doses after X. Brackets with × say how often a value occurs here. For survival time, the PubChem record calls one and a half times the control and up active, and a quarter to a half above the control has no call in these data; cut-offs in other NCI protocols can differ.
# Test system: BDF1 mice, Lewis lung carcinoma iv, survival T/C
# Experiment: NCI In Vivo Anticancer Drug Screen. Data for tumor model Lewis Lung Carcinoma (intravenous) in B6D2F1 (BDF1) mice
# Settings: T/C endpoint: median survival time, higher T/C = longer survival
# Procedure: The antitumor activity of compounds was measured in mice bearing transplantable tumors. Survival or tumor size were measured and the results are expressed as the measurement made in the treated group (T) divided by the measurement made in the vehicle treated control group (C). The tumor model used in this assay is Lewis Lung Carcinoma (intravenous) in B6D2F1 (BDF1) mice
# [1] = dose: 200.0 mg/kg/injection, schedule: Q01DX009 (ip), vehicle: saline
# [2] = dose: 400.0 mg/kg/injection, schedule: Q01DX009 (ip), vehicle: saline
# [3] = dose: 800.0 mg/kg/injection, schedule: Q01DX009 (ip), vehicle: saline
# [4] = dose: 200.0 mg/kg/injection, schedule: Q01DX009 (ip), vehicle: saline with Tween-80
# [5] = dose: 400.0 mg/kg/injection, schedule: Q01DX009 (ip), vehicle: saline with Tween-80
# [6] = dose: 8.0 mg/kg/injection, schedule: Q01DX009 (ip), vehicle: saline
# [7] = dose: 16.0 mg/kg/injection, schedule: Q01DX009 (ip), vehicle: saline
# [8] = dose: 32.0 mg/kg/injection, schedule: Q01DX009 (ip), vehicle: saline
# [9] = dose: 4.0 mg/kg/injection, schedule: Q01DX009 (ip), vehicle: saline
# [10] = dose: 25.0 mg/kg/injection, schedule: Q01DX009 (ip), vehicle: saline with Tween-80
smiles,measurement,setting,value
O=C1c2ccccc2C(=O)N1CCC[P+](c1ccccc1)(c1ccccc1)c1ccccc1,survivor count,"dose: 1.56 mg/kg/injection, schedule: Q01DX009 (ip), vehicle: Klucel (hydroxypropylcellulose) (HPC)",10 of 10
same,survivor count,"dose: 3.12 mg/kg/injection, schedule: Q01DX009 (ip), vehicle: Klucel (hydroxypropylcellulose) (HPC)",10 of 10
same,survivor count,"dose: 6.25 mg/kg/injection, schedule: Q01DX009 (ip), vehicle: Klucel (hydroxypropylcellulose) (HPC)",10 of 10
same,survivor count,"dose: 12.5 mg/kg/injection, schedule: Q01DX009 (ip), vehicle: Klucel (hydroxypropylcellulose) (HPC)",10 of 10
same,survivor count,"dose: 25.0 mg/kg/injection, schedule: Q01DX009 (ip), vehicle: Klucel (hydroxypropylcellulose) (HPC)",10 of 10
O=P1(NCCCl)OCCCN1CCCl (stereo unspecified),T/C,"dose: 129.0 mg/kg/injection, schedule: Q01DX001 (ip), vehicle: saline",127 % of control
same,T/C,"dose: 180.0 mg/kg/injection, schedule: Q01DX001 (ip), vehicle: water",134 % of control
same,survivor count,[1],9 of 10
same,survivor count,"dose: 300.0 mg/kg/injection, schedule: Q01DX001 (ip), vehicle: water",8 of 10
same,survivor count,[2],6 of 10
same,T/C,"dose: 646.0 mg/kg/injection, schedule: Q01DX001 (ip), vehicle: saline",142 % of control
N=c1ccn2c(n1)OC1C(O)C(CO)OC12 (stereo unspecified),T/C,"dose: 50.0 mg/kg/injection, schedule: Q01DX009 (ip), vehicle: saline",126 % of control
same,T/C,[1],137 % of control
same,T/C,[2],140 % of control
same,survivor count,[3],9 of 10
CC(=O)Nc1ccc(Nc2ccc(C(=C3C=CC(=[N+](C)CCC#N)C=C3)c3ccc(N(C)CCC#N)cc3)cc2)cc1,survivor count,"dose: 50.0 mg/kg/injection, schedule: Q01DX009 (ip), vehicle: saline with Tween-80",10 of 10
same,survivor count,"dose: 100.0 mg/kg/injection, schedule: Q01DX009 (ip), vehicle: saline with Tween-80",4 of 10
same,survivor count,[4],0 of 10
same,survivor count,[5],0 of 10
O=[N+]([O-])c1ccc(-n2[nH]nnc2=S)cc1,survivor count,[5],4 of 10
CN(C)CCN1C(=O)c2cccc3cc(N)cc(c23)C1=O,survivor count,"dose: 32.0 mg/kg/injection, schedule: Q01DX009 (ip), vehicle: saline with Tween-80",10 of 10
O=C(NCCCCCCCCCCNC(=O)N1CC1)N1CC1,survivor count,"dose: 12.0 mg/kg/injection, schedule: Q01DX009 (ip), vehicle: saline",9 of 10
Nc1ccn([C@@H](C=O)O[C@@H](C=O)CO)c(=O)n1,survivor count,[1],10 of 10
O=C(O)CP(=O)(O)O,T/C,[2],125 % of control
same,T/C,[3],131 % of control
Cc1c(N)nc([C@H](CC(N)=O)NC[C@H](N)C(N)=O)nc1C(=O)N[C@H](C(=O)N[C@H](C)[C@@H](O)[C@H](C)C(=O)N[C@H](C(=O)NCCc1nc(-c2nc(C(=O)NCCC[S+](C)C)cs2)cs1)[C@@H](C)O)C(OC1OC(CO)C(O)C(O)C1OC1OC(CO)C(O)C(OC(N)=O)C1O)c1cnc[nH]1 (stereo partly specified),T/C,[6],128 % of control
same,survivor count,"dose: 12.0 mg/kg/injection, schedule: Q04DX003 (ip), vehicle: saline",5 of 8
same,T/C,[7],140 % of control
same,T/C,"dose: 27.0 mg/kg/injection, schedule: Q04DX003 (ip), vehicle: saline",125 % of control
same,survivor count,[8],10 of 10
same,T/C,"dose: 40.0 mg/kg/injection, schedule: Q04DX003 (ip), vehicle: saline",134 % of control
same,survivor count,"dose: 60.0 mg/kg/injection, schedule: Q04DX003 (ip), vehicle: saline",6 of 8
same,survivor count,"dose: 64.0 mg/kg/injection, schedule: Q01DX009 (ip), vehicle: saline",10 of 10
O=C1CCCCC1C(=O)C(F)(F)F (stereo unspecified),survivor count,"dose: 100.0 mg/kg/injection, schedule: Q01DX009 (ip), vehicle: saline + Tween-80 + alcohol",9 of 10
same,survivor count,"dose: 200.0 mg/kg/injection, schedule: Q01DX009 (ip), vehicle: saline + Tween-80 + alcohol",2 of 10
CCC1(O)CC2CN(CCc3c([nH]c4ccccc34)C(C(=O)OC)(c3cc4c(cc3OC)N(C)C3C(O)(C(=O)NCCO)C(O)C5(CC)C=CCN6CCC43C65)C2)C1 (stereo unspecified),T/C,"dose: 2.78 mg/kg/injection, schedule: Q04DX003 (ip), vehicle: saline",131 % of control
same,survivor count,"dose: 4.63 mg/kg/injection, schedule: Q04DX003 (ip), vehicle: saline",8 of 8
same,survivor count,"dose: 600.0 micrograms/kg/injection, schedule: Q01DX009 (ip), vehicle: saline",8 of 8
same,survivor count,"dose: 1000.0 micrograms/kg/injection, schedule: Q01DX009 (ip), vehicle: saline",8 of 8
same,survivor count,"dose: 1670.0 micrograms/kg/injection, schedule: Q01DX009 (ip), vehicle: saline",5 of 8
Cc1c(N)nc([C@H](CC(N)=O)NC[C@H](N)C(N)=O)nc1C(=O)N[C@H](C(=O)N[C@H](C)[C@@H](O)CC(=O)N[C@H](C(=O)NC(O[C@@H]1O[C@@H](C)[C@@H](N)[C@@H](O)[C@H]1O)C(O)c1nc(-c2nc(C(=O)NCCCCN)cs2)cs1)[C@@H](C)O)[C@@H](O[C@@H]1O[C@@H](CO)[C@@H](O)[C@H](O)[C@@H]1O[C@H]1O[C@H](CO)[C@@H](O)[C@H](OC(N)=O)[C@@H]1O)c1c[nH]cn1 (stereo partly specified),T/C,[9],144 % of control
same,T/C,[6],135 % of control
same,T/C,[7],148 % of control
same,survivor count,[8],10 of 10
CN(C)CCCNc1c2ccccc2nc2cccc([N+](=O)[O-])c12,survivor count,"dose: 74.6 micrograms/kg/injection, schedule: Q04DX003 (ip), vehicle: saline",8 of 8
same,T/C,"dose: 207.0 micrograms/kg/injection, schedule: Q04DX003 (ip), vehicle: saline",125 % of control
same,survivor count,"dose: 576.0 micrograms/kg/injection, schedule: Q04DX003 (ip), vehicle: saline",8 of 8
same,survivor count,"dose: 960.0 micrograms/kg/injection, schedule: Q04DX003 (ip), vehicle: saline",8 of 8
same,survivor count,"dose: 1600.0 micrograms/kg/injection, schedule: Q04DX003 (ip), vehicle: saline",8 of 8
CN(C)c1nc(N(C)C)nc(N(C)C)n1,T/C,[10],125 % of control
same,survivor count,"dose: 300.0 mg/kg/injection, schedule: Q04DX003 (ip), vehicle: Klucel (hydroxypropylcellulose) (HPC)",7 of 7
same,survivor count,[5],9 of 10
same,survivor count,"dose: 450.0 mg/kg/injection, schedule: Q04DX003 (ip), vehicle: Klucel (hydroxypropylcellulose) (HPC)",1 of 7
same,survivor count,"dose: 675.0 mg/kg/injection, schedule: Q04DX003 (ip), vehicle: Klucel (hydroxypropylcellulose) (HPC)",0 of 7
CCCC(=O)Oc1ccc(/C=N/NC(N)=S)nc1,survivor count,[10],9 of 10
same,survivor count,[5],10 of 10
Nc1ncnc2c1ncn2C1C=C(CO)C(O)C1O (stereo unspecified),survivor count,[6],0 of 10
same,survivor count,[7],0 of 10
CC1CN1CC(O)C(O)CN1CC1C (stereo unspecified),T/C,"dose: 2.0 mg/kg/injection, schedule: Q01DX009 (ip), vehicle: saline",134 % of control
same,survivor count,[9],10 of 10 (2×)
same,survivor count,[6],8 of 10
O=C1C=C(C2OC(CO)C(O)C2O)C(=O)N1 (stereo unspecified),survivor count,"dose: 0.13 mg/kg/injection, schedule: Q01DX009 (ip), vehicle: saline",10 of 10
same,survivor count,"dose: 0.25 mg/kg/injection, schedule: Q01DX009 (ip), vehicle: saline",10 of 10
same,survivor count,"dose: 0.5 mg/kg/injection, schedule: Q01DX009 (ip), vehicle: saline",10 of 10
CS(=O)(=O)OCCCNCCCOS(C)(=O)=O,survivor count,"dose: 20.0 mg/kg/injection, schedule: Q01DX009 (ip), vehicle: saline",10 of 10
same,survivor count,"dose: 40.0 mg/kg/injection, schedule: Q01DX009 (ip), vehicle: saline",10 of 10
same,survivor count,"dose: 80.0 mg/kg/injection, schedule: Q01DX009 (ip), vehicle: saline",10 of 10 (2×)
same,survivor count,"dose: 160.0 mg/kg/injection, schedule: Q01DX009 (ip), vehicle: saline",10 of 10
same,survivor count,"dose: 320.0 mg/kg/injection, schedule: Q01DX009 (ip), vehicle: saline",10 of 10
ClCc1ccc2ccccc2n1,survivor count,[4],7 of 10
same,survivor count,[5],0 of 10
